# Test results from the supplement of paper PMC12542422.
# Counter-ions that a name gives are not always drawn. ± gives the standard deviation of the averaged measurements. The list shows a part of the results. Values are raw readings; no control value is given beside them.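 Ribosome-assembly readouts in HeLa cells were imaged via ENP1 staining, with or without export block, or inducible tagged ribosomal protein reporters. Machine learning classified per-cell signal location versus solvent (DMSO) controls. Hits surpassed the DMSO false-positive mean by five standard deviations and were visually confirmed; three biological replicates.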
# Legend:
# [1] = system: HeLa K (ENP1 immunofluorescence, +LMB); experiment: fraction of cells with nucleolar or nucleolar/nucleoplasmic ENP1 signal (MainHitrate); higher = more cells with nucleolar/nuclear readout signal (for ENP1 -LMB: less RNAPI inhibition; for +LMB ENP1 and RP reporters: stronger nuclear/nucleolar retention, i.e. ribosome biogenesis defect); conditions: concentration: 1 µM; treatment time: 6 h; ENP1 +LMB; leptomycin B: 20 nM, last 1.5 h
# [2] = system: HeLa K (ENP1 immunofluorescence, no LMB); experiment: as above; conditions: concentration: 1 µM; treatment time: 6 h; ENP1 -LMB; leptomycin B: none
# HeLa RPS2-YFP reporter = experiment: fraction of reporter-positive cells with nuclear (nucleolar or nucleolar/nucleoplasmic) RPS2-YFP (MainHitrate); higher = more cells with nucleolar/nuclear readout signal (for ENP1 -LMB: less RNAPI inhibition; for +LMB ENP1 and RP reporters: stronger nuclear/nucleolar retention, i.e. ribosome biogenesis defect); conditions: concentration: 1 µM; treatment time: 6 h
# HeLa RPL29-GFP reporter = experiment: fraction of reporter-positive cells with nuclear (nucleolar or nucleolar/nucleoplasmic) RPL29-GFP (MainHitrate); higher = more cells with nucleolar/nuclear readout signal (for ENP1 -LMB: less RNAPI inhibition; for +LMB ENP1 and RP reporters: stronger nuclear/nucleolar retention, i.e. ribosome biogenesis defect); conditions: concentration: 1 µM; treatment time: 6 h
Structure (SMILES),fraction [1],fraction [2],fraction of reporter-positive cells with nuclear (HeLa RPS2-YFP reporter),fraction of reporter-positive cells with nuclear (HeLa RPL29-GFP reporter)
CNC(=O)c1cc(Oc2ccc(NC(=O)Nc3ccc(Cl)c(C(F)(F)F)c3)cc2)ccn1 [Sorafenib (Nexavar)],0.0474 ± 0.019,0.9986 ± 0.0025,0.0687 ± 0.064,0.217 ± 0.052
CCCSc1ccc2[nH]c(NC(=O)OC)nc2c1 [Albendazole (Albenza)],0.102 ± 0.11,0.9947 ± 0.0092,0.154 ± 0.092,0.262 ± 0.094
N[C@@H]1CCCCN(c2c(F)cc3c(=O)c(C(=O)O)cn(C4CC4)c3c2Cl)C1 [Besifloxacin HCl (Besivance)],0.136 ± 0.18,0.977 ± 0.04,0.132 ± 0.083,0.197 ± 0.071
CCCCc1oc2ccc(NS(C)(=O)=O)cc2c1C(=O)c1ccc(OCCCN(CCCC)CCCC)cc1 [Dronedarone HCl (Multaq)],0.13 ± 0.17,0.991 ± 0.016,0.132 ± 0.066,0.223 ± 0.067
CCOc1ccc(NC(C)=O)cc1 [Phenacetin],0.0661 ± 0.078,0.9977 ± 0.004,0.127 ± 0.11,0.206 ± 0.086
COc1c2ccoc2cc2oc(=O)ccc12 [Bergapten],0.0659 ± 0.084,0.989 ± 0.019,0.148 ± 0.12,0.186 ± 0.076
Nc1nc(=O)c2c([nH]1)NCC(CNc1ccc(C(=O)N[C@@H](CCC(=O)O)C(=O)O)cc1)N2C=O (stereo partly specified) [Leucovorin Calcium],0.0946 ± 0.1,0.9979 ± 0.0036,0.109 ± 0.074,0.207 ± 0.079
CC(C)Cc1ccc(C(C)C(=O)O)cc1 (stereo unspecified) [Ibuprofen (Advil)],0.432 ± 0.51,0.9981 ± 0.0033,0.108 ± 0.059,0.199 ± 0.074
CN1Cc2c(N)cccc2C(c2ccccc2)C1 (stereo unspecified) [Nomifensine Maleate],0.132 ± 0.17,0.9953 ± 0.0082,0.16 ± 0.13,0.299 ± 0.26
CCOC(CN1CCN(CC(C)C(=O)c2ccccc2)CC1)c1ccccc1 (stereo unspecified) [Eprazinone 2HCl],0.0498 ± 0.059,0.984 ± 0.028,0.119 ± 0.099,0.227 ± 0.054
CC1(C)S[C@@H]2[C@H](NC(=O)Cc3ccccc3)C(=O)N2[C@H]1C(=O)O [Benzylpenicillin sodium],0.045 ± 0.066,0.982 ± 0.03,0.0936 ± 0.07,0.206 ± 0.023
CCOC(=O)OC(C)OC1=C(C(=O)Nc2ccccn2)N(C)S(=O)(=O)c2ccccc21 (stereo unspecified) [Ampiroxicam],0.0817 ± 0.12,0.993 ± 0.012,0.139 ± 0.1,0.202 ± 0.082
Cc1cc(C2CCCCC2)n(O)c(=O)c1 [Ciclopirox (Penlac)],0.106 ± 0.13,0.994 ± 0.011,0.109 ± 0.063,0.238 ± 0.049
N[C@@H](C(=O)N[C@@H]1C(=O)N2C(C(=O)O)=C(Cl)CS[C@H]12)c1ccccc1 [Cefaclor (Ceclor)],0.0489 ± 0.032,0.9987 ± 0.0023,0.0826 ± 0.051,0.201 ± 0.043
CN(C)CCOC(C)(c1ccccc1)c1ccccn1 (stereo unspecified) [Doxylamine Succinate],0.0812 ± 0.12,0.991 ± 0.016,0.117 ± 0.099,0.207 ± 0.067
CN1C[C@@H]2C[C@H]1CN2c1cc2c(cc1F)c(=O)c(C(=O)O)cn2C1CC1 [Danofloxacin Mesylate],0.0927 ± 0.12,0.984 ± 0.028,0.158 ± 0.094,0.218 ± 0.072
C[C@@H]1[C@H](O)[C@@H](C)/C=C/C=C/C=C/C=C/C=C/C=C/C=C/[C@H](O[C@@H]2O[C@H](C)[C@@H](O)[C@H](N)[C@@H]2O)C[C@@H]2O[C@](O)(C[C@@H](O)C[C@@H](O)[C@H](O)CC[C@@H](O)C[C@@H](O)CC(=O)O[C@H]1C)C[C@H](O)[C@H]2C(=O)O [Amphotericin B (Abelcet)],0.117 ± 0.14,0.998 ± 0.0035,0.12 ± 0.083,0.208 ± 0.056
C[C@@H](O)[C@H]1C(=O)N2C(C(=O)OCOC(=O)C(C)(C)C)=C(SC3CN(C4=NCCS4)C3)[C@H](C)[C@H]12 [Tebipenem pivoxil (L-084)],0.13 ± 0.18,0.9949 ± 0.0088,0.0953 ± 0.027,0.217 ± 0.056
Nc1ccn([C@@H]2O[C@H](CO)[C@@H](O)C2(F)F)c(=O)n1 [Gemcitabine HCl (Gemzar)],0.0726 ± 0.065,0.9971 ± 0.0051,0.066 ± 0.034,0.182 ± 0.091
CO[C@H]1C[C@@H]2CC[C@@H](C)[C@@](O)(O2)C(=O)C(=O)N2CCCC[C@H]2C(=O)O[C@H]([C@H](C)C[C@@H]2CC[C@@H](O)[C@H](OC)C2)CC(=O)[C@H](C)/C=C(\C)[C@@H](O)[C@@H](OC)C(=O)[C@H](C)C[C@H](C)/C=C/C=C/C=C/1C [Rapamycin (Sirolimus)],0.165 ± 0.11,0.9984 ± 0.0027,0.163 ± 0.16,0.299 ± 0.12
Clc1ccc(COC(Cn2ccnc2)c2ccc(Cl)cc2Cl)cc1 (stereo unspecified) [Econazole nitrate (Spectazole)],0.151 ± 0.19,0.993 ± 0.013,0.118 ± 0.097,0.225 ± 0.07
CCCN1CCCC[C@H]1C(=O)Nc1c(C)cccc1C [Ropivacaine HCl],0.0453 ± 0.052,0.9961 ± 0.0067,0.12 ± 0.094,0.227 ± 0.051

# One compound at a time, from the list above:
# Cc1cc(C2CCCCC2)n(O)c(=O)c1 [Ciclopirox (Penlac)] is listed with fraction [1]: 0.106 ± 0.13; fraction [2]: 0.994 ± 0.011; fraction of reporter-positive cells with nuclear (HeLa RPS2-YFP reporter): 0.109 ± 0.063; fraction of reporter-positive cells with nuclear (HeLa RPL29-GFP reporter): 0.238 ± 0.049
# Clc1ccc(COC(Cn2ccnc2)c2ccc(Cl)cc2Cl)cc1 (stereo unspecified) [Econazole nitrate (Spectazole)] is listed with fraction [1]: 0.151 ± 0.19; fraction [2]: 0.993 ± 0.013; fraction of reporter-positive cells with nuclear (HeLa RPS2-YFP reporter): 0.118 ± 0.097; fraction of reporter-positive cells with nuclear (HeLa RPL29-GFP reporter): 0.225 ± 0.07

# Further records follow:

Structure (SMILES),fraction [1],fraction [2],fraction of reporter-positive cells with nuclear (HeLa RPS2-YFP reporter),fraction of reporter-positive cells with nuclear (HeLa RPL29-GFP reporter)
O=C(O)c1cn(C2CC2)c2cc(N3CCNCC3)c(F)cc2c1=O [Ciprofloxacin (Cipro)],0.155 ± 0.22,0.9952 ± 0.0083,0.109 ± 0.056,0.242 ± 0.086
CC(C)(C)NC(=O)[C@H]1CC[C@H]2[C@@H]3CC[C@H]4NC(=O)C=C[C@]4(C)[C@H]3CC[C@]12C [Finasteride],0.0925 ± 0.047,0.9986 ± 0.0024,0.0993 ± 0.072,0.22 ± 0.07
CN(C/C=C/C#CC(C)(C)C)Cc1cccc2ccccc12 [Terbinafine hydrochloride (Lamisil)],0.135 ± 0.21,0.9944 ± 0.0097,0.14 ± 0.099,0.247 ± 0.1
CSc1ccc2c(c1)N(CCC1CCCCN1C)c1ccccc1S2 (stereo unspecified) [Thioridazine HCl],0.256 ± 0.4,0.9967 ± 0.0058,0.168 ± 0.12,0.298 ± 0.22
O=c1[nH]c(=O)n([C@H]2C[C@H](O)[C@@H](CO)O2)cc1I [Idoxuridine],0.116 ± 0.17,0.99 ± 0.018,0.124 ± 0.06,0.216 ± 0.05
CCCCOc1ccc(CC(=O)NO)cc1 [Bufexamac],0.0946 ± 0.13,0.99 ± 0.018,0.114 ± 0.095,0.228 ± 0.07
N=C(N)NC(=N)NCCc1ccccc1 [Phenformin hydrochloride],0.143 ± 0.21,0.991 ± 0.015,0.126 ± 0.065,0.215 ± 0.056
CCCC(=O)OCOC(=O)C1=C(C)NC(C)=C(C(=O)OC)C1c1cccc(Cl)c1Cl (stereo unspecified) [Cleviprex (Clevidipine)],0.0942 ± 0.11,0.9943 ± 0.0099,0.115 ± 0.1,0.221 ± 0.079
O=NN(CCCl)C(=O)NC1CCCCC1 [Lomustine (CeeNU)],0.109 ± 0.15,0.9944 ± 0.0097,0.11 ± 0.13,0.25 ± 0.08
O=C(O)C1=CO[C@@H](O[C@@H]2O[C@H](CO)[C@@H](O)[C@H](O)[C@H]2O)[C@@H]2C(CO)=CC[C@H]12 [Geniposidic acid],0.126 ± 0.17,0.993 ± 0.012,0.132 ± 0.078,0.246 ± 0.075
NC[C@H]1CC[C@H](C(=O)O)CC1 [Tranexamic acid (Transamin)],0.083 ± 0.1,0.991 ± 0.016,0.111 ± 0.055,0.224 ± 0.058
C=C1c2cccc(O)c2C(=O)C2=C(O)[C@]3(O)C(=O)C(C(N)=O)=C(O)[C@@H](N(C)C)[C@@H]3[C@@H](O)[C@H]12 [Methacycline hydrochloride (Physiomycine)],0.113 ± 0.16,0.9948 ± 0.0091,0.117 ± 0.072,0.276 ± 0.1
NCCCC(O)(P(=O)(O)O)P(=O)(O)O [Alendronate (Fosamax)],0.165 ± 0.14,0.9973 ± 0.0047,0.0973 ± 0.057,0.204 ± 0.061
O=C1O[C@H]([C@@H](O)CO)C([O-])=C1O.[Na+] [Sodium ascorbate],0.0466 ± 0.056,0.986 ± 0.024,0.187 ± 0.14,0.464 ± 0.4
O=C(Nc1cccc2c(=O)cc(-c3nnn[nH]3)oc12)c1ccc(OCCCCc2ccccc2)cc1 [Pranlukast],0.123 ± 0.17,0.991 ± 0.016,0.13 ± 0.082,0.226 ± 0.11
COC(=O)C1=C(C)NC(C)=C(C(=O)OCC(C)C)C1c1ccccc1[N+](=O)[O-] (stereo unspecified) [Nisoldipine (Sular)],0.144 ± 0.12,0.9983 ± 0.0029,0.12 ± 0.076,0.195 ± 0.061
Cc1nc2n(c(=O)c1CCN1CCC(c3noc4cc(F)ccc34)CC1)CCCC2 [Risperidone (Risperdal)],0.106 ± 0.13,0.9986 ± 0.0025,0.104 ± 0.054,0.221 ± 0.056
"CC[C@H]1OC(=O)[C@H](C)[C@@H](O[C@H]2C[C@@](C)(OC)[C@@H](O)[C@H](C)O2)[C@H](C)[C@@H](O[C@@H]2O[C@H](C)C[C@H](N(C)C)[C@H]2O)[C@](C)(OC)C[C@@H](C)C(=O)[C@H](C)[C@@H](O)[C@]1(C)O [Clarithromycin (Biaxin, Klacid)]",0.153 ± 0.23,0.993 ± 0.012,0.119 ± 0.071,0.217 ± 0.092
O=C1CCc2ccc(OCCCCN3CCN(c4cccc(Cl)c4Cl)CC3)cc2N1 [Aripiprazole (Abilify)],0.0683 ± 0.084,0.995 ± 0.0086,0.107 ± 0.092,0.254 ± 0.11
O=C(O)C(=O)O.[NH-]C1CCCCC1[NH-].[Pt+2] (stereo unspecified) [Oxaliplatin (Eloxatin)],0.0878 ± 0.1,0.911 ± 0.15,0.073 ± 0.045,0.284 ± 0.14
N=C(N)NC(=O)c1nc(Cl)c(N)nc1N [Amiloride hydrochloride (Midamor)],0.0718 ± 0.095,0.993 ± 0.013,0.136 ± 0.11,0.228 ± 0.13
CCN(CCCc1ccccc1)CCCc1ccccc1 [Alverine Citrate],0.0973 ± 0.15,0.987 ± 0.023,0.124 ± 0.089,0.204 ± 0.069
